# In the supplement of paper PMC12067093, “Discovery and optimisation of a covalent ligand for TRIM25 and its application to targeted protein ubiquitination” (Chemical Science, 2025):
# Protein sequences, listed by entry. Tags and fused reporters are not part of them. Lines headed by an entry give the natural chain unless they say otherwise; changes in a name come on top.
# UniProt Q9NRW3: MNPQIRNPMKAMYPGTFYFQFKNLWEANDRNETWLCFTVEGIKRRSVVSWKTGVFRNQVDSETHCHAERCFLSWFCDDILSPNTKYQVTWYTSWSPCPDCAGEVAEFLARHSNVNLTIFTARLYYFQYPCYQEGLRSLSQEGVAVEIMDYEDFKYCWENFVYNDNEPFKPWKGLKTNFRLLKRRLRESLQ
# UniProt P13798: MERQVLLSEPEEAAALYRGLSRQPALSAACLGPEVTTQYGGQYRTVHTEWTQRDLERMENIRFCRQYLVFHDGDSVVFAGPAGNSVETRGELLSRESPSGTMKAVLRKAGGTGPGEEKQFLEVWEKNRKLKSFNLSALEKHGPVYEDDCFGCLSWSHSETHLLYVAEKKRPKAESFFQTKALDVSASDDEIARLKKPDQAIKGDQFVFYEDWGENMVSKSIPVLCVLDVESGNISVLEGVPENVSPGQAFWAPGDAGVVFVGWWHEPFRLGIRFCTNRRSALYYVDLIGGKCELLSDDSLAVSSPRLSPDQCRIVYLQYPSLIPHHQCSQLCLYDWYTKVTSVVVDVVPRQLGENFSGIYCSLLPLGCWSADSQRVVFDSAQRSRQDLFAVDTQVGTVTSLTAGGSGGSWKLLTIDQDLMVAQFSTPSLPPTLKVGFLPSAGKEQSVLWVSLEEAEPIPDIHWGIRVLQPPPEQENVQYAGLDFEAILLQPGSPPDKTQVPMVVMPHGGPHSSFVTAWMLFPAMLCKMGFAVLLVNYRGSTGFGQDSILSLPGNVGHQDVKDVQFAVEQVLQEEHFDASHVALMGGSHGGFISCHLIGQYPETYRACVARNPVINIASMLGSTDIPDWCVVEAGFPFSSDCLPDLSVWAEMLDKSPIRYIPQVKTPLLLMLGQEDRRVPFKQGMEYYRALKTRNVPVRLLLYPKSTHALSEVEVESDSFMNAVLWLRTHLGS
# UniProt O14727: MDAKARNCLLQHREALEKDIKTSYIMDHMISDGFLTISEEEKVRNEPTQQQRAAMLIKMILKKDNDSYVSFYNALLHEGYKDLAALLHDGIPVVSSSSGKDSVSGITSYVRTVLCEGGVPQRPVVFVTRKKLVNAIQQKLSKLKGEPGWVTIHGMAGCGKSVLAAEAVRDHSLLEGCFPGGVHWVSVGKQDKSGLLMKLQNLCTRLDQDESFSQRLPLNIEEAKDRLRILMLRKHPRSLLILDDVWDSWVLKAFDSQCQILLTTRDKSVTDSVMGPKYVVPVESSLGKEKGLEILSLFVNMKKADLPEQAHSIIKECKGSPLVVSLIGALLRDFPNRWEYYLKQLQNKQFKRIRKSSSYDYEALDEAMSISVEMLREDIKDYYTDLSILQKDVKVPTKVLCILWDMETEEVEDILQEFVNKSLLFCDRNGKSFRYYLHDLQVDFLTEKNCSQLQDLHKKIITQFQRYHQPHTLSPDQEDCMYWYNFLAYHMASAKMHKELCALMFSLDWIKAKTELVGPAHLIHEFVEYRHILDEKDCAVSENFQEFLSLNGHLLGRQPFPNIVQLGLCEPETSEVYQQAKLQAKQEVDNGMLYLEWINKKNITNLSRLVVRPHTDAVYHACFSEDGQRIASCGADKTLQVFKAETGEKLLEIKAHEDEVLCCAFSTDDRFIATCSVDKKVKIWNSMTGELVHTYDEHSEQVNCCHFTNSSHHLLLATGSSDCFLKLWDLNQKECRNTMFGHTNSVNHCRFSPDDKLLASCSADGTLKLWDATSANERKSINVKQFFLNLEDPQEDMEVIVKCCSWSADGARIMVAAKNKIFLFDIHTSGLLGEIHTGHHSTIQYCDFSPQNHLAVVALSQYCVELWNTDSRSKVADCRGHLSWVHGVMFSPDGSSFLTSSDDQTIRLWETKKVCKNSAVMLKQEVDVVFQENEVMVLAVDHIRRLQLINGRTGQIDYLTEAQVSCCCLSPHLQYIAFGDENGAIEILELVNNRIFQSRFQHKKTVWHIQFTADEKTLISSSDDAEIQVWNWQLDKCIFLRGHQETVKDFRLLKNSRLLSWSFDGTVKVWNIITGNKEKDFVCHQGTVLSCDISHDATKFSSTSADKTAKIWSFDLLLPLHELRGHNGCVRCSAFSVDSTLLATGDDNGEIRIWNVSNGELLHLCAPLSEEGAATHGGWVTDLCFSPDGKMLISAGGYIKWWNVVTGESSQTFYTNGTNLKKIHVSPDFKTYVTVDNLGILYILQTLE
# UniProt O15084: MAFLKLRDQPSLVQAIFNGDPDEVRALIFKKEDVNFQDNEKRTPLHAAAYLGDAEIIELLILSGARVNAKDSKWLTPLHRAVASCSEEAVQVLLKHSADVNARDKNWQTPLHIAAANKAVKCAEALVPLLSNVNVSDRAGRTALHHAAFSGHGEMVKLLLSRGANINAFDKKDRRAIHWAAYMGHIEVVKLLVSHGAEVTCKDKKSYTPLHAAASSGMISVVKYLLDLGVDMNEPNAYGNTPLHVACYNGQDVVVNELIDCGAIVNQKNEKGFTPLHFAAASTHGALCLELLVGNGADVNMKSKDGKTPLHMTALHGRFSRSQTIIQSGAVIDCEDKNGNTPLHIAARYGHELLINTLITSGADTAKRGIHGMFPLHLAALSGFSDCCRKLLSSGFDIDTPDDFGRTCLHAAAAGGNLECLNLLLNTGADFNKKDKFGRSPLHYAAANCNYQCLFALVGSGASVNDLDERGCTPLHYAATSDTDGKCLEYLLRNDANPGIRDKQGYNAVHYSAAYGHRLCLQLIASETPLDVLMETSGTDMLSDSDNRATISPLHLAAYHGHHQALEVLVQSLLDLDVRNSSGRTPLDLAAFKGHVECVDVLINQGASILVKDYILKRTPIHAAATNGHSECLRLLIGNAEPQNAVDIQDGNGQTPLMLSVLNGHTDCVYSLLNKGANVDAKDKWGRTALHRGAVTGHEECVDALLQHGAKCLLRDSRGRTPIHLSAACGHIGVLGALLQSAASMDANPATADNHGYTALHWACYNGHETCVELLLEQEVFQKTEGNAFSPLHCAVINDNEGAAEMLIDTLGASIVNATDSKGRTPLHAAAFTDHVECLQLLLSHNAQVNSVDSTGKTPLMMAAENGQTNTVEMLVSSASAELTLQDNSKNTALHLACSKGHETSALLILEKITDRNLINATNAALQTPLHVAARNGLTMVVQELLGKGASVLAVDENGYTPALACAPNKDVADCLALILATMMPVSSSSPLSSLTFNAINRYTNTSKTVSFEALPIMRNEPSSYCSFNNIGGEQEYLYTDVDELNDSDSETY
# UniProt P27695, whole entry, looked up: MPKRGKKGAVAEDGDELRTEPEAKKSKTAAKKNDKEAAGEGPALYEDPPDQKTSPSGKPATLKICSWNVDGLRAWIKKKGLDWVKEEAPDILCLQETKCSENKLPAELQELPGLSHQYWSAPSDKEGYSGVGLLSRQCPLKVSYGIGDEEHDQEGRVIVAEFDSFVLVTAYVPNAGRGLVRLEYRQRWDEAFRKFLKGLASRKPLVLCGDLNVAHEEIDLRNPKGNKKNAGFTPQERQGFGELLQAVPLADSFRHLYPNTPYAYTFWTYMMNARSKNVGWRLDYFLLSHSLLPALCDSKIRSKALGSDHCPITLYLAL
# UniProt O75179: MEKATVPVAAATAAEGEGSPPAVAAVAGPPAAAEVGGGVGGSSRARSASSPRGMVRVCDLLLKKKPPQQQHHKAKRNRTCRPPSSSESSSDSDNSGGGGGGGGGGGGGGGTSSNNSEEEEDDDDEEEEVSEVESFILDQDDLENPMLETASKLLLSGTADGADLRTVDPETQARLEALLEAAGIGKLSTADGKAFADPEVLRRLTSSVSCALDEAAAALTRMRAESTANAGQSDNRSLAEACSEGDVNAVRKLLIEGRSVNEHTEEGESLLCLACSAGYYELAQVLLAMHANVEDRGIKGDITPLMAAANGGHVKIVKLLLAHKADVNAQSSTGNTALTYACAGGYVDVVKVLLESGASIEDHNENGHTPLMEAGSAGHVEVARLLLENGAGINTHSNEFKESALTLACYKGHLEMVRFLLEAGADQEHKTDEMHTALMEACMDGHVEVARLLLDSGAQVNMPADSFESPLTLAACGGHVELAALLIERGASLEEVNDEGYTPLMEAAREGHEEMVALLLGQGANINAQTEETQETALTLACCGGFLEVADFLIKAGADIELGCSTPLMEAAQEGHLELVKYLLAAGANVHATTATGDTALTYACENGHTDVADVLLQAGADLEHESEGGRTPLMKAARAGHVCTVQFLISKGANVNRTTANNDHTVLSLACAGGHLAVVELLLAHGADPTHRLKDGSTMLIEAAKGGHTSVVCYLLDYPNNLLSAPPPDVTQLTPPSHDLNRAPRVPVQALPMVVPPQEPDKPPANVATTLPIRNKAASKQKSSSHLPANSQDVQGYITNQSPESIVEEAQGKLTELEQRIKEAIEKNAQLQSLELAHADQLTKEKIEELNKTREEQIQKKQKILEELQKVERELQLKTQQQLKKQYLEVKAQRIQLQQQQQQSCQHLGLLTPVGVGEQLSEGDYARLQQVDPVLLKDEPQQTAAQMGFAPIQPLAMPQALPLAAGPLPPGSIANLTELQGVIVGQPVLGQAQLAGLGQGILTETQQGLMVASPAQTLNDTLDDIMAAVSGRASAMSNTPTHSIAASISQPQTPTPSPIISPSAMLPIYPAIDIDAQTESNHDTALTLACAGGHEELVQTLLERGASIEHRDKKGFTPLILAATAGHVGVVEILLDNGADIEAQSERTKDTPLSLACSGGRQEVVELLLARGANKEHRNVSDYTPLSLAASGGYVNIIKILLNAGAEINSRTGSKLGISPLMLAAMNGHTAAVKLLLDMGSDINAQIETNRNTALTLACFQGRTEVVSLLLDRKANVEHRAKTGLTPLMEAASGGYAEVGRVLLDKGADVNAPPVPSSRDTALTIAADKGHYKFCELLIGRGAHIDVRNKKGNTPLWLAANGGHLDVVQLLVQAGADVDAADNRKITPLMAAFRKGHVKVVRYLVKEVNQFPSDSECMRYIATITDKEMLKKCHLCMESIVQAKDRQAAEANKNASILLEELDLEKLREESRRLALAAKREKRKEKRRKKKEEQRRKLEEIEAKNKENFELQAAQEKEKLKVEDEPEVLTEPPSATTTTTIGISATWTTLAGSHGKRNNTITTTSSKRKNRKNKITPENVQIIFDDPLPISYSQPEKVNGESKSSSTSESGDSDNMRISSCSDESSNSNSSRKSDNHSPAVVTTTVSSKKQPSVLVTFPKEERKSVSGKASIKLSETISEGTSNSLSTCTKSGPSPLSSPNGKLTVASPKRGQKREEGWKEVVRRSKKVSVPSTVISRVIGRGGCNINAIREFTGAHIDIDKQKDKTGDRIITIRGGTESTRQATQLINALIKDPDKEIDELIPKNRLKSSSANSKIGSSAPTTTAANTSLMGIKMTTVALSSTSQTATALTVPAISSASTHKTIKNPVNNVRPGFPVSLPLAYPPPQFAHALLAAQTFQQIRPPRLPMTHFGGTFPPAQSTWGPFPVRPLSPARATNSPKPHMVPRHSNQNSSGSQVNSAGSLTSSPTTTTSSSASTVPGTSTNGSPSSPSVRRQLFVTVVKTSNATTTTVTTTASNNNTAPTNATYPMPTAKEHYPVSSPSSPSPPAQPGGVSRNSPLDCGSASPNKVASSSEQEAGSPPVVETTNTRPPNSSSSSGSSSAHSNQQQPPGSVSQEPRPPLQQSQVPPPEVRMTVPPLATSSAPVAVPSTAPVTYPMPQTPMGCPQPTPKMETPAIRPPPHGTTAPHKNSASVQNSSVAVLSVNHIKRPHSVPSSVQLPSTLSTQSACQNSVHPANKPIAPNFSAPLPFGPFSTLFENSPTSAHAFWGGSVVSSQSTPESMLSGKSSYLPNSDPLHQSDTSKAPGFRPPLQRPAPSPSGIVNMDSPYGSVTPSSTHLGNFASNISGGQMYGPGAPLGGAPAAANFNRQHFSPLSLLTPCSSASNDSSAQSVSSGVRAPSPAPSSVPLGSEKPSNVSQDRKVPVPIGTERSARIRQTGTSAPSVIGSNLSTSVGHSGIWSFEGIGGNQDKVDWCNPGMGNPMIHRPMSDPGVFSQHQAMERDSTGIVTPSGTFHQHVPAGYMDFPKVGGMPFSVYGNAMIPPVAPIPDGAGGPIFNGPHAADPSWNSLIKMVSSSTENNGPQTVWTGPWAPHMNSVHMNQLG
# UniProt Q96GX9: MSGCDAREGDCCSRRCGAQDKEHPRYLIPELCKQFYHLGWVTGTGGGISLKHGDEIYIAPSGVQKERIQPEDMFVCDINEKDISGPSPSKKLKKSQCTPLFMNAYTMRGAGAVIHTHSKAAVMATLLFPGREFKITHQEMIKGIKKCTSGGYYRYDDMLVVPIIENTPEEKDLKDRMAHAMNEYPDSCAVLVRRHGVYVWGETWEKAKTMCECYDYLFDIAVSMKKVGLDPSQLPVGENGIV
# The list shows a part of the results.
# Compound: CC1Cc2ccccc2N1C(=O)C1CCCN(C1)C(=O)CCl (mixture of isomers) [TRIM25 ligand 11 (diastereomer mixture)]
# Test: probe-labelled cysteine peptide fold change vs DMSO (competition) (log2 fold change); higher = less target engagement (more negative = stronger competition)
# Conditions: THP-1, incubation time: 4 h
# 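Note: competitive chemoproteomic profiling in live THP-1 cells with an iodoacetamide desthiobiotin (IA-DTB) probe, comparing probe-labelled peptide intensities in compound-treated cells against DMSO-treated controls.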
Target,probe-labelled cysteine peptide fold change (10 µM),probe-labelled cysteine peptide fold change (50 µM)
AP3D1_O14617_1103_VDSCASMYSR (UniProt O14617),0.0668,0.258
APOBEC3C_Q9NRW3_70_CFLSWFCDDILSPNTK (UniProt Q9NRW3),0.14,0.0233
ANKRD50_Q9ULJ7_941_DIVELLFSHGADVNCK (UniProt Q9ULJ7),0.0184,0.185
APEH_P13798_361_QLGENFSGIYCSLLPLGCWSADSQR (UniProt P13798),-0.171,-0.245
APAF1_O14727_675_AHEDEVLCCAFSTDDRFIATCSVDK (UniProt O14727),-0.0457,0.0759
ANXA7_P20073_285_VLIEILCTR (UniProt P20073),-0.00762,0.0533
ANKRD28_O15084_701_GAVTGHEECVDALLQHGAK (UniProt O15084),-0.117,0.0623
APEX1_P27695_310_ALGSDHCPITLYLAL (UniProt P27695),-0.0822,-0.0947
ANKRD17_O75179_210_RLTSSVSCALDEAAAALTR (UniProt O75179),5.79e-05,-0.0111
ANKRD17_O75179_1336_FCELLIGR (UniProt O75179),0.0355,0.207
ANKFY1_Q9P2R3_389_TPLHVSIMAGNEYVFSQLLQCK (UniProt Q9P2R3),-0.0874,-0.184
ANKRD17_O75179_409_ESALTLACYK (UniProt O75179),0.13,0.193
APIP_Q96GX9_147_CTSGGYYR (UniProt Q96GX9),0.156,0.162
APAF1_O14727_426_SLLFCDR (UniProt O14727),0.0723,0.0805
